Source: the supplement of paper PMC9233669
Variants at the floor of the assay are shown more often than the library holds them.

Assays:
biotinyl-Met-oxazolone = assay: self-aminoacylation, catalytic enhancement (BMO) (fold over background); higher = more active; k-Seq, kA / k0A0; sequences stand for … in GGGAAUGGAUCCACAUCUACGAAUUC…UUCACUGCAGACUUGACGAAGCUG
Procedure, shortened: (§1)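 Mutagenized RNA pools with a 21-nt variable region (0.43 μM) reacted with each biotinyl-aminoacyl-oxazolone at 2–1250 μM. Reactions ran in 50 μL HEPES/NaCl/KCl/MgCl2/CaCl2 buffer with 5% acetonitrile, pH 6.9–7.0, for 90 minutes at room temperature. Streptavidin-captured RNA was quantified by triplicate qPCR and Illumina sequencing, and per-sequence fraction reacted was fit to a pseudo-first-order model with 1000 bootstraps. Catalytic enhancement is median kA divided by the uncatalyzed rate, the low-activity peak of a bimodal Gaussian fit.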

biotinyl-Leu-oxazolone = assay: self-aminoacylation, catalytic enhancement (BLO) (fold over background); higher = more active; k-Seq, kA / k0A0; sequences stand for … in GGGAAUGGAUCCACAUCUACGAAUUC…UUCACUGCAGACUUGACGAAGCUG
Procedure, shortened: as §1

biotinyl-Ile-oxazolone = assay: self-aminoacylation, catalytic enhancement (BIO) (fold over background); higher = more active; k-Seq, kA / k0A0; sequences stand for … in GGGAAUGGAUCCACAUCUACGAAUUC…UUCACUGCAGACUUGACGAAGCUG
Procedure, shortened: as §1

biotinyl-Trp-oxazolone = assay: self-aminoacylation, catalytic enhancement (BWO) (fold over background); higher = more active; k-Seq, kA / k0A0; sequences stand for … in GGGAAUGGAUCCACAUCUACGAAUUC…UUCACUGCAGACUUGACGAAGCUG
Procedure, shortened: as §1

biotinyl-Val-oxazolone = assay: self-aminoacylation, catalytic enhancement (BVO) (fold over background); higher = more active; k-Seq, kA / k0A0; sequences stand for … in GGGAAUGGAUCCACAUCUACGAAUUC…UUCACUGCAGACUUGACGAAGCUG
Procedure, shortened: as §1

Sequence | self-aminoacylation (biotinyl-Met-oxazolone) | self-aminoacylation (biotinyl-Leu-oxazolone) | self-aminoacylation (biotinyl-Ile-oxazolone) | self-aminoacylation (biotinyl-Trp-oxazolone) | self-aminoacylation (biotinyl-Val-oxazolone)
AUUCAACUAGGUCAUCGUGUG [Fam2.2 aminoacylation ribozyme variant] | 1.01 | 1.17 | 0.938 | 1.02 | 0.94
AUUCAUCUAGGUCAUCGGGCG [Fam2.2 aminoacylation ribozyme variant] | 3.33 | 3.27 | 2.58 | 2.66 | 2.71
ACACACUUCAACCAAUCGGUC [Fam1B.1 aminoacylation ribozyme variant] | 1.65 | 2.16 | 1.69 | 26.6 | 1.56
AGUACCCUGGUCAUCGAGUUA [Fam2.1 aminoacylation ribozyme variant] | 1.6 | 1.7 | 1.22 | 1.6 | 1.38
AAGUUAGCUAAUAGUCGCAAU [Fam3.1 aminoacylation ribozyme variant] | 1.42 | 1.52 | 1.9 | 1.85 | 1.53
GAGUUUGCUAAUCGUCGCAAG [Fam3.1 aminoacylation ribozyme variant] | 1.44 | 1.3 | 1.45 | 1.92 | 1.3
AAGUUCGCUAAUAGUCUCAAG [Fam3.1 aminoacylation ribozyme variant] | 1.35 | 1.36 | 1.74 | 1.69 | 1.54
CAGUUUGCUAAUAGUCGCAGG [Fam3.1 aminoacylation ribozyme variant] | 1.48 | 1.9 | 1.72 | 1.51 | 1.67
AUUCACUUAGCUCAUCGGGUG [Fam2.2 aminoacylation ribozyme variant] | 1.57 |  | 1.91 | 1.37 | 1.77
AGUCACCUAGUUCAUCGGGUG [Fam2.2 aminoacylation ribozyme variant] | 4.14 | 4.05 | 3.71 | 5.16 | 3.29
AAGUUUGGUAAAAGUCGCAAG [Fam3.1 aminoacylation ribozyme variant] | 1.44 | 1.96 | 1.62 | 1.89 | 1.47
CAGUUUCCUAAUAGUCGCAAG [Fam3.1 aminoacylation ribozyme variant] | 1.34 | 1.5 | 1.52 | 1.01 | 1.41
AAGUUUGCUAAUAAUCGUAAG [Fam3.1 aminoacylation ribozyme variant] | 1.03 | 0.942 | 0.912 | 1.24 | 0.932
CUACUGCAAACAAUUGGUCUG [Fam1A.1 aminoacylation ribozyme variant] | 0.966 | 0.823 | 1.19 | 0.956 | 1.07
CCUCACUUCAAGCAAUCGGAC [Fam1B.1 aminoacylation ribozyme variant] | 0.732 | 0.832 | 0.979 | 1.4 | 0.941
CUACCUCAAACAAUCGCUCUG [Fam1A.1 aminoacylation ribozyme variant] | 0.85 | 1.27 | 0.818 | 1.83 | 1.17
CCACACUUCAGGCGAUCGGUC [Fam1B.1 aminoacylation ribozyme variant] |  | 1.84 | 1.69 | 1.72 | 
AAGCUUGCCAAUAGUCGCAAG [Fam3.1 aminoacylation ribozyme variant] | 2.48 | 2.23 | 2.31 | 3.62 | 2.42
AUACUUCAAACAAUCUGUCUG [Fam1A.1 aminoacylation ribozyme variant] | 1.05 | 0.821 | 1.18 | 1.43 | 1.09

Sequence | self-aminoacylation (biotinyl-Met-oxazolone) | self-aminoacylation (biotinyl-Leu-oxazolone) | self-aminoacylation (biotinyl-Ile-oxazolone) | self-aminoacylation (biotinyl-Trp-oxazolone) | self-aminoacylation (biotinyl-Val-oxazolone)
AUUACCCUGACCAUCGAGUGA [Fam2.1 aminoacylation ribozyme variant] | 4.2 | 4.95 | 3.01 | 5.06 | 2.95
CAACUUCACACAAUCGGUCUG [Fam1A.1 aminoacylation ribozyme variant] | 0.981 | 1.16 | 1.17 | 1.5 | 1.06
AAGUUUUCUAGUAGUCGCAAG [Fam3.1 aminoacylation ribozyme variant] | 1.47 | 1.27 | 1.89 | 1.06 | 1.52
AAGUUUUCUAAUAGUCGCAAU [Fam3.1 aminoacylation ribozyme variant] | 1.33 | 1.71 | 1.95 | 1.84 | 1.52
AUUACCCUGGUCAUAGAGUCA [Fam2.1 aminoacylation ribozyme variant] | 0.82 | 0.962 | 0.884 | 0.529 | 0.974
AUGUUUGUUAAUAGUCGCAAG [Fam3.1 aminoacylation ribozyme variant] | 1.7 | 1.49 | 1.7 | 1.97 | 1.35
CCACACUUCAGGCUAUCGGUC [Fam1B.1 aminoacylation ribozyme variant] | 1.1 | 1.23 | 1.33 | 1.39 | 1.33
CUAAUUCAAAUAAUCGGUCUG [Fam1A.1 aminoacylation ribozyme variant] | 0.7 | 0.733 | 0.803 | 1.76 | 0.749
AUUCACCUAGUUCAUCGGGGG [Fam2.2 aminoacylation ribozyme variant] | 1.85 |  | 1.32 | 1.86 | 1.64
CCACAUUUCAAGCAAUCGGUC [Fam1B.1 aminoacylation ribozyme variant] | 1.03 | 1.07 | 1.26 | 1.88 | 1.32
AUUCACCUAGGUCAUGGGAUG [Fam2.2 aminoacylation ribozyme variant] | 0.66 | 0.611 | 0.596 | 0.315 | 0.657
GAGGUUGCUAAUAGUCGCAAG [Fam3.1 aminoacylation ribozyme variant] | 1.82 | 1.54 | 1.61 | 1.45 | 1.68
AUUCACCUAGCUCAUCGGGUG [Fam2.2 aminoacylation ribozyme variant] | 1.89 |  | 1.83 | 1.85 | 
UCACACUUCAAGCAACCGGUC [Fam1B.1 aminoacylation ribozyme variant] | 0.801 | 0.739 | 0.984 | 0.796 | 1.05
CCUCACUUCAAGGAAUCGGUC [Fam1B.1 aminoacylation ribozyme variant] | 0.946 | 0.936 | 0.76 | 4.27 | 0.869
AAGUGUGCUAAUAGUGGCAAG [Fam3.1 aminoacylation ribozyme variant] | 0.86 | 0.939 | 0.824 | 0.881 | 0.611
CUACUUCAAACAAUCGAUGUG [Fam1A.1 aminoacylation ribozyme variant] |  | 1.86 | 1.42 | 1.86 | 1.39
AUUCACCGAGCUCAUCGGGUG [Fam2.2 aminoacylation ribozyme variant] |  |  |  | 1.64 | 
CCACACUUAAAGCACUCGGUC [Fam1B.1 aminoacylation ribozyme variant] | 0.856 | 0.924 | 1.16 | 0.732 | 1.11

Sequence | self-aminoacylation (biotinyl-Met-oxazolone) | self-aminoacylation (biotinyl-Leu-oxazolone) | self-aminoacylation (biotinyl-Ile-oxazolone) | self-aminoacylation (biotinyl-Trp-oxazolone) | self-aminoacylation (biotinyl-Val-oxazolone)
CCACACUUCAAACAAUCGAUC [Fam1B.1 aminoacylation ribozyme variant] | 0.409 | 0.455 | 0.586 | 1.08 | 0.613
AUUCACCUAGGUCAGCGGCUG [Fam2.2 aminoacylation ribozyme variant] | 2.5 | 3.16 | 1.67 | 1.82 | 1.83
GUACAUCAAACAAUCGGUCUG [Fam1A.1 aminoacylation ribozyme variant] | 0.97 | 1.11 | 1.18 | 1.4 | 1.25
AAGUUAGCGAAUAGUCGCAAG [Fam3.1 aminoacylation ribozyme variant] | 1.53 | 1.55 | 1.69 | 1.78 | 1.66
AACUAUGCUAAUAGUCGCAAG [Fam3.1 aminoacylation ribozyme variant] | 1.96 |  |  | 2 | 1.75
CUACUCCAAACAAGCGGUCUG [Fam1A.1 aminoacylation ribozyme variant] | 1.13 | 0.802 | 1.2 | 0.584 | 1.14
CUACAUCAACCAAUCGGUCUG [Fam1A.1 aminoacylation ribozyme variant] | 0.748 | 0.554 | 0.643 | 0.796 | 0.781
AAGUUUGCUAAUAGUUGCGAG [Fam3.1 aminoacylation ribozyme variant] | 1.28 | 1.5 | 1.3 | 1.21 | 1.26
AUUACCCUGGUCAGCGAUUGA [Fam2.1 aminoacylation ribozyme variant] | 0.945 | 1.09 | 1.15 | 1.55 | 1.11
AAGUCUGCUAAUAGUCGCAAU [Fam3.1 aminoacylation ribozyme variant] | 1.95 | 1.65 | 1.33 | 1.53 | 1.37
AUCCACCUAGGUCAUCGUGUG [Fam2.2 aminoacylation ribozyme variant] | 1.22 | 1.29 | 1.04 | 1.3 | 1.17
CAGUUUGCUAAUAGUCGAAAG [Fam3.1 aminoacylation ribozyme variant] | 0.883 | 1.21 | 0.996 | 1.23 | 1.01
CCACACGUCAAGCAAUCGGGC [Fam1B.1 aminoacylation ribozyme variant] | 1.05 | 1.15 | 1.25 | 1.4 | 
AUUCACCCAGGUCAUCGGGUU [Fam2.2 aminoacylation ribozyme variant] |  |  | 1.61 | 1.23 | 
AAUUUUACUAAUAGUCGCAAG [Fam3.1 aminoacylation ribozyme variant] | 1.95 | 1.81 |  | 1.52 | 1.85
AAGUUUGCUAAUAUCCGCAAG [Fam3.1 aminoacylation ribozyme variant] | 0.725 | 0.845 | 0.911 |  | 0.886
AUUACCCUGGUCGUCAAGUGA [Fam2.1 aminoacylation ribozyme variant] | 0.773 | 0.821 | 0.713 |  | 0.836
CUACUUCAACCAAUCGGUAUG [Fam1A.1 aminoacylation ribozyme variant] | 0.557 | 0.761 | 0.774 |  | 0.819
